Data as given in PubChem BioAssay AID743121 (NCATS, 2013).
Shown is an unselected part of about 26,000 reagents. 167 of them (0.63%) were called active. 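Calls are per gene from RSA p-values that are not deposited; an individual active-marked siRNA can sensitise only weakly.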 Further read-outs or replicates are left out here.

Screen: 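Genes whose silencing strengthens cell killing by camptothecin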 (primary screen)
System: MDA-MB-231 cells, a human breast cancer line
Reagent: single siRNA against human genes, 20 nM siRNA (0.8 pmol per well)
Timing: 120 h (drug added 48 h after transfection, read 72 h later)
Conditions: camptothecin 20 nM (about EC30) for 72 h; vehicle 0.1% DMSO in parallel plates
Measured: 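CellTiter-Glo ATP signal, scaled to control siRNA as percent viability; sensitisation given as log2 of untreated divided by camptothecin-treated viability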
Direction: log2 vehicle/camptothecin viability: higher = stronger sensitisation to camptothecin; viability with camptothecin: higher = more viable cells
Rule for the call: 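Active genes have an RSA gene-level p-value below 0.001, computed from the ratios of their separate siRNAs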

What did the screen give for LINGO2 [SID164578012]?
log2 vehicle/camptothecin viability: -0.21; viability with camptothecin (% of control): 22.5; activity call: inactive

What did the screen give for LINGO2 [SID164578013]?
log2 vehicle/camptothecin viability: -0.355; viability with camptothecin (% of control): 69.6; activity call: inactive

For LINGO2 [SID164578016], how do the results read?
log2 vehicle/camptothecin viability: -0.755; viability with camptothecin (% of control): 129; activity call: inactive

With LINGO2 [SID164578018], what does the deposit list?
log2 vehicle/camptothecin viability: -0.151; viability with camptothecin (% of control): 80.7; activity call: inactive

With ITGA6 [SID164371785], what does the deposit list?
log2 vehicle/camptothecin viability: 0.155; viability with camptothecin (% of control): 50.4; activity call: inactive

What did the screen give for ITGA6 [SID164371788]?
log2 vehicle/camptothecin viability: 0.179; viability with camptothecin (% of control): 91.4; activity call: inactive

What did the screen give for ITGA6 [SID164371790]?
log2 vehicle/camptothecin viability: 0.17; viability with camptothecin (% of control): 87.2; activity call: inactive

With ITGA6 [SID164371791], what was measured?
log2 vehicle/camptothecin viability: -0.316; viability with camptothecin (% of control): 83.4; activity call: inactive

2 consecutive entries already listed:
LINGO2 [SID164578018] — log2 vehicle/camptothecin viability = -0.151; viability with camptothecin (% of control) = 80.7; activity call = inactive
ITGA6 [SID164371785] — log2 vehicle/camptothecin viability = 0.155; viability with camptothecin (% of control) = 50.4; activity call = inactive

The results go on:
What did the screen give for SLC9A6 [SID164411338]?
log2 vehicle/camptothecin viability: -0.379; viability with camptothecin (% of control): 97.3; activity call: inactive

What is on record for SLC9A6 [SID164411339]?
log2 vehicle/camptothecin viability: -0.183; viability with camptothecin (% of control): 86.5; activity call: inactive

What did the screen give for SLC9A6 [SID164411340]?
log2 vehicle/camptothecin viability: -0.414; viability with camptothecin (% of control): 126; activity call: inactive

How did the screen score SLC9A6 [SID164411343]?
log2 vehicle/camptothecin viability: -0.459; viability with camptothecin (% of control): 115; activity call: inactive

Which result is listed for NISCH [SID164416202]?
log2 vehicle/camptothecin viability: -0.292; viability with camptothecin (% of control): 98.1; activity call: inactive

What is on record for NISCH [SID164416203]?
log2 vehicle/camptothecin viability: 0.291; viability with camptothecin (% of control): 72.1; activity call: inactive

With NISCH [SID164416204], what does the deposit list?
log2 vehicle/camptothecin viability: -0.155; viability with camptothecin (% of control): 58.7; activity call: inactive

What did the screen give for NISCH [SID164416205]?
log2 vehicle/camptothecin viability: 0.135; viability with camptothecin (% of control): 86.5; activity call: inactive
